# Laboratory results taken from publication PMC11290490, “Structural insights into activation mechanisms on NADase of the bacterial DSR2 anti-phage defense system” (Science Advances, 2024).
# Results are given in words; binding and its absence hold for the method and conditions named. Some results given as binding are weak or reduced against the parent protein; the word gives no strength.
# T1: defense-associated sirtuin2 (DSR2) from Bacillus subtilis 29R (Bacillus subtilis 29R) (UniProt P0DXN8)
# T1 sequence: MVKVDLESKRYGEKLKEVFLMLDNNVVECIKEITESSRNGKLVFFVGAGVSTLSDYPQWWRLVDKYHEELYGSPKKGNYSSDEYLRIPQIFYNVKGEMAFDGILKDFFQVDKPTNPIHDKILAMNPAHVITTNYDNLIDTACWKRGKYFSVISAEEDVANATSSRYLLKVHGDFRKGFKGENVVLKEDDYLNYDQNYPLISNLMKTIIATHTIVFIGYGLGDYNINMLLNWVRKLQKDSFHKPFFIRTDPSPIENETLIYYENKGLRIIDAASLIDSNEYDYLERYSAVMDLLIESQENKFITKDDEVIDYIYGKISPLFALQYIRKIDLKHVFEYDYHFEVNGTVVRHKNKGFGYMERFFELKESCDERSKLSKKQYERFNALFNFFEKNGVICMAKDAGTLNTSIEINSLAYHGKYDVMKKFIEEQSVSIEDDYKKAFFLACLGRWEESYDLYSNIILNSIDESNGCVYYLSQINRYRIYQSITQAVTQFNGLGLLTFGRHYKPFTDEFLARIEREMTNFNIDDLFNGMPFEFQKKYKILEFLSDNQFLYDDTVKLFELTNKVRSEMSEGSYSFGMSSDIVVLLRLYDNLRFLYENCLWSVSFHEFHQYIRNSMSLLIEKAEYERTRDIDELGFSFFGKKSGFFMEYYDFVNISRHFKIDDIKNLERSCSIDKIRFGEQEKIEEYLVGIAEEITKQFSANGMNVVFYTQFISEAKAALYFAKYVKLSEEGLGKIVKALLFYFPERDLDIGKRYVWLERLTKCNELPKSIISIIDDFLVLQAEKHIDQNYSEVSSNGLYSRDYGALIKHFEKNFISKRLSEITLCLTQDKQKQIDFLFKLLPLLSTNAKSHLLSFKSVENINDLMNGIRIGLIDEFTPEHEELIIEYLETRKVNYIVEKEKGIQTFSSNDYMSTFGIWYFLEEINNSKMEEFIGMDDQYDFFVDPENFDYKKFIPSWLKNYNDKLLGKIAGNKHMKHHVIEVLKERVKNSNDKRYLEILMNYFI
# B1: DSR anti-defense 1 (DSAD1) from phage phi3T/SPbeta (natural protein)
# chain: KDTGATHDLVYHSKINTFVWDVEFDIVLSDSKELNKCYFVKCFNPYRINGKCDFAVSSIDIFSEGKRLLIENEFNFKITKAVHVATSKDVTEIVLHLSERISSPFPIVKEVVYLD
# notes: DSAD1 from phage phi3T/SPbeta, WP_004399562; source: E. coli BL21(DE3), purified (Ni-NTA, TEV cleavage, SEC); not shown: His-tag, N-terminal, cleaved; Trx-tag, N-terminal, cleaved
# Biological target: T1, defense-associated sirtuin2 (DSR2) from Bacillus subtilis 29R (Bacillus subtilis 29R)
# Assay: cryo-EM structure; purified DSR2 or its complex with DSAD1 or TTP (formed at a molar ratio of 1:3, on ice, purified by gel filtration), 1.0 mg/ml on Quantifoil grids; both purified
binder,measurement,value
B1,binding,binds
